Source: patent US9408803B2, “Compositions containing lignan-class compounds” (SUNTORY HOLDINGS LIMITED, priority 2006, dated 2016)
Some results were stated once for a whole list of compounds, not compound by compound. At least one compound was matched to its structure with a doubt left.

Experiment: Storage stability of the dissolved samples (precipitation)
Type: physicochemical
Conditions: ordinary temperatures

c1cc2c(cc1[C@H]1OC[C@H]3[C@@H]1CO[C@@H]3c1ccc3c(c1)OCO3)OCO2 [Episesamin, episesamin]
time remained stable without precipitating: at least 9 months
